Each structure is given as a SMILES string. Most of the hits are listed elsewhere, so they are rarer here than in the full data. Calls of active or inactive are those of the source. The rule behind the calls is not given here.

The target of the test is Chaperone protein DnaK (Escherichia coli (strain K12)) (UniProt P0A6Y8). In words: E. coli DnaK chaperone inhibitors, primary screen, luminescence, E. coli K12 (AID 547).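 Note: tested at 10 µM.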 The note with it: DnaK chaperone assay, luminescence read-out; stronger effect = lower value.
Turning to `COc1ccc2cc([C@H](C)C(=O)O)ccc2c1`, the luminescence is inactive: 2.6e+06 cps.

The values above are taken from PubChem BioAssay AID547 (Emory University Molecular Libraries Screening Center, 2006).
